Assay results: US20040005294A1, “IGFBP-3 in the diagnosis and treatment of cancer” (priority 2002, published 2004)
These are yes or no findings as the source states them, for the method shown. Some results given as binding are weak or reduced against the parent protein; the word gives no strength.

The chains behind the UniProt entries cited, without tags or fusion partners. Where a name states a change or a piece, a line headed by the entry shows the natural chain unless it says otherwise. Residues count along the entry.
UniProt P05019, residues 49-118: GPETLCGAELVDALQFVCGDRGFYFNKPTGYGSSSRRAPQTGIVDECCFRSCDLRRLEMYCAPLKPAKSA
UniProt P17936: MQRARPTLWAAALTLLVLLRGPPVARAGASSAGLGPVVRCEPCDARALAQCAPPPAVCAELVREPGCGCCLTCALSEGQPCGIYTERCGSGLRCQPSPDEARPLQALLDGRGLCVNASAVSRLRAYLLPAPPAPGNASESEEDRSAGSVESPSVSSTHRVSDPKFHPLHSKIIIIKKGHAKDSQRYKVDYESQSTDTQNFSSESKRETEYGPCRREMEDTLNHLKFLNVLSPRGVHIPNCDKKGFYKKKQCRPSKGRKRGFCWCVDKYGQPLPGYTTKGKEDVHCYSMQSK

Biological target: IGF-I (UniProt P05019)
Assay: Western ligand blot of conditioned media, [125I] IGF-I as probe

“IGFBP-3 secreted from Ad5CMV-BP3-infected H1299 cells (human insulin growth factor binding protein 3) (from UniProt P17936 28-291)” was tested, and the binding was “binds”.
